HELM strings list residues between dots; [ac] is acetyl, [am] amide, other brackets name non-standard units.
assay: general procedure: Fmoc solid-phase peptide synthesis; H-Cys(4-methoxytrityl)-2-chlorotrityl-Resin (loading 0.56 mmol/g); Fmoc-AA-Wang resin; PyBOP, DIPEA; conditions: conjugation step

Substance	conjugation yield [%]
EC0258 (Tris-Saccharo-Asp-Folate Vinblastine Conjugate)	62
Tetra-Saccharo-Asp-Folate Vinblastine Conjugate	84
PEPTIDE1{[Pte].[gGlu].[Sacch].D.[Sacch].D.[Sacch].D.[Sacch].C}|CHEM1{[SS-DAVLBH]}$PEPTIDE1,CHEM1,10:R3-1:R1$$$V2.0	62
PEPTIDE1{[Pte].[gGlu].[Sacch].D.[Sacch].C}|CHEM1{[SS-DAVLBH]}$PEPTIDE1,CHEM1,6:R3-1:R1$$$V2.0	66
PEPTIDE1{[Pte].[gGlu].D.R.D.D.C}|CHEM1{[SS-DAVLBH]}$PEPTIDE1,CHEM1,7:R3-1:R1$$$V2.0	70
Tetra-Saccharo-tris-Glu-Folate Vinblastine Conjugate	61
Tetra-Saccharo-bis-Asp-Folate Vinblastine Conjugate	62
PEPTIDE1{[Pte].[gGlu].[Sacch].D.[Sacch].D.[Sacch].C}|CHEM1{[SS-DAVLBH]}$PEPTIDE1,CHEM1,8:R3-1:R1$$$V2.0	64
EC0454 (Tetra-Saccharo-Bis-Asp-Folate Vinblastine Conjugate)	70
Tetra-Saccharo-Bis-α-Glu-Arg-Folate Vinblastine Conjugate	70

same assay, conditions: whole synthesis

Substance	isolated yield [%]
Tetra-Saccharo-Bis-Asp-Folate Linker EC0452	40
Tetra-Saccharoglutamate-Bis-αGlu-Folate Spacer EC0491	51
Tetra-Saccharo-Bis-α-Glu-Arg-Folate Linker EC0480	33
Tetra-Saccharo-tris-Glu-Folate Linker EC0477	67
Tetra-Saccharo-bis-Asp-Folate Linker EC0457	71
Tetra-Homosaccharo-Tris-αGlu-Folate Spacer EC0478	52

same assay, conditions: whole synthesis, scale 0.1 mmol

Substance	isolated mass	isolated yield [%]
Tetra-Saccharo-Tris-Asp-Folate Linker EC0268	˜100 mg	63
Tetra-Saccharo-Asp-Folate Linker EC0463	˜63 mg	46

same assay, conditions: whole synthesis, scale 0.56 mmol

Substance	isolated mass	isolated yield [%]
Bis-Saccharo-Folate Linker EC0244	˜284 mg	50
